# These are yes or no findings as the source states them, for the method shown. Binding seen in cells or lysates may run through a third protein. Here binding means that the protein was enriched with, or labelled near, the bait; the list need not be complete.
# B1: SP110 (protein, UniProt Q9HB58 1-689)
# chain: MFTMTRAMEEALFQHFMHQKLGIAYAIHKPFPFFEGLLDNSIITKRMYMESLEACRNLIPVSRVVHNILTQLERTFNLSLLVTLFSQINLREYPNLVTIYRSFKRVGASYEWQSRDTPILLEAPTGLAEGSSLHTPLALPPPQPPQPSCSPCAPRVSEPGTSSQQSDEILSESPSPSDPVLPLPALIQEGRSTSVTNDKLTSKMNAEEDSEEMPSLLTSTVQVASDNLIPQIRDKEDPQEMPHSPLGSMPEIRDNSPEPNDPEEPQEVSSTPSDKKGKKRKRCIWSTPKRRHKKKSLPGGTASSRHGIQKKLKRVDQVPQKKDDSTCNSTVETRAQKARTECARKSRSEEIIDGTSEMNEGKRSQKTPSTPRRVTQGAASPGHGIQEKLQVVDKVTQRKDDSTWNSEVMMRVQKARTKCARKSRLKEKKKEKDICSSSKRRFQKNIHRRGKPKSDTVDFHCSKLPVTCGEAKGILYKKKMKHGSSVKCIRNEDGTWLTPNEFEVEGKGRNAKNWKRNIRCEGMTLGELLKRKNSDECEVCCQGGQLLCCGTCPRVFHEDCHIPPVEAKRMLWSCTFCRMKRSSGSQQCHHVSKTLERQMQPQDQLIRDYGEPFQEAMWLDLVKERLITEMYTVAWFVRDMRLMFRNHKTFYKASDFGQVGLDLEAEFEKDLKDVLGFHEANDGGFWTLP
# B2: EEF1B2 (protein, UniProt P24534 1-225)
# chain: MGFGDLKSPAGLQVLNDYLADKSYIEGYVPSQADVAVFEAVSSPPPADLCHALRWYNHIKSYEKEKASLPGVKKALGKYGPADVEDTTGSGATDSKDDDDIDLFGSDDEEESEEAKRLREERLAQYESKKAKKPALVAKSSILLDVKPWDDETDMAKLEECVRSIQADGLVWGSSKLVPVGYGIKKLQIQCVVEDDKVGTDMLEEQITAFEDYVQSMDVAAFNKI
# B3: TCOF1 (protein, UniProt Q13428 1-1488)
# chain: MAEARKRRELLPLIYHHLLRAGYVRAAREVKEQSGQKCFLAQPVTLLDIYTHWQQTSELGRKRKAEEDAALQAKKTRVSDPISTSESSEEEEEAEAETAKATPRLASTNSSVLGADLPSSMKEKAKAETEKAGKTGNSMPHPATGKTVANLLSGKSPRKSAEPSANTTLVSETEEEGSVPAFGAAAKPGMVSAGQADSSSEDTSSSSDETDVEGKPSVKPAQVKASSVSTKESPARKAAPAPGKVGDVTPQVKGGALPPAKRAKKPEEESESSEEGSESEEEAPAGTRSQVKASEKILQVRAASAPAKGTPGKGATPAPPGKAGAVASQTKAGKPEEDSESSSEESSDSEEETPAAKALLQAKASGKTSQVGAASAPAKESPRKGAAPAPPGKTGPAVAKAQAGKREEDSQSSSEESDSEEEAPAQAKPSGKAPQVRAASAPAKESPRKGAAPAPPRKTGPAAAQVQVGKQEEDSRSSSEESDSDREALAAMNAAQVKPLGKSPQVKPASTMGMGPLGKGAGPVPPGKVGPATPSAQVGKWEEDSESSSEESSDSSDGEVPTAVAPAQEKSLGNILQAKPTSSPAKGPPQKAGPVAVQVKAEKPMDNSESSEESSDSADSEEAPAAMTAAQAKPALKIPQTKACPKKTNTTASAKVAPVRVGTQAPRKAGTATSPAGSSPAVAGGTQRPAEDSSSSEESDSEEEKTGLAVTVGQAKSVGKGLQVKAASVPVKGSLGQGTAPVLPGKTGPTVTQVKAEKQEDSESSEEESDSEEAAASPAQVKTSVKKTQAKANPAAARAPSAKGTISAPGKVVTAAAQAKQRSPSKVKPPVRNPQNSTVLARGPASVPSVGKAVATAAQAQTGPEEDSGSSEEESDSEEEAETLAQVKPSGKTHQIRAALAPAKESPRKGAAPTPPGKTGPSAAQAGKQDDSGSSSEESDSDGEAPAAVTSAQVIKPPLIFVDPNRSPAGPAATPAQAQAASTPRKARASESTARSSSSESEDEDVIPATQCLTPGIRTNVVTMPTAHPRIAPKASMAGASSSKESSRISDGKKQEGPATQVSKKNPASLPLTQAALKVLAQKASEAQPPVARTQPSSGVDSAVGTLPATSPQSTSVQAKGTNKLRKPKLPEVQQATKAPESSDDSEDSSDSSSGSEEDGEGPQGAKSAHTLGPTPSRTETLVEETAAESSEDDVVAPSQSLLSGYMTPGLTPANSQASKATPKLDSSPSVSSTLAAKDDPDGKQEAKPQQAAGMLSPKTGGKEAASGTTPQKSRKPKKGAGNPQASTLALQSNITQCLLGQPWPLNEAQVQASVVKVLTELLEQERKKVVDTTKESSRKGWESRKRKLSGDQPAARTPRSKKKKKLGAGEGGEASVSPEKTSTTSKGKAKRDKASGDVKEKKGKGSLGSQGAKDEPEEELQKGMGTVEGGDQSNPKSKKEKKKSDKRKKDKEKKEKKKKAKKASTKDSESPSQKKKKKKKKTAEQTV
# B4: FHL1 (protein, UniProt Q13642 1-323)
# chain: MAEKFDCHYCRDPLQGKKYVQKDGHHCCLKCFDKFCANTCVECRKPIGADSKEVHYKNRFWHDTCFRCAKCLHPLANETFVAKDNKILCNKCTTREDSPKCKGCFKAIVAGDQNVEYKGTVWHKDCFTCSNCKQVIGTGSFFPKGEDFYCVTCHETKFAKHCVKCNKAITSGGITYQDQPWHADCFVCVTCSKKLAGQRFTAVEDQYYCVDCYKNFVAKKCAGCKNPITGKRTVSRVSHPVSKARKPPVCHGKRLPLTLFPSANLRGRHPGGERTCPSWVVVLYRKNRSLAAPRGPGLVKAPVWWPMKDNPGTTTASTAKNAP
# B5: NQO2 (protein, UniProt P16083 1-231)
# chain: MAGKKVLIVYAHQEPKSFNGSLKNVAVDELSRQGCTVTVSDLYAMNLEPRATDKDITGTLSNPEVFNYGVETHEAYKQRSLASDITDEQKKVREADLVIFQFPLYWFSVPAILKGWMDRVLCQGFAFDIPGFYDSGLLQGKLALLSVTTGGTAEMYTKTGVNGDSRYFLWPLQHGTLHFCGFKVLAPQISFAPEIASEEERKGMVAAWSQRLQTIWKEEPIPCTAHWHFGQ
# B6: DNTTIP2 (protein, UniProt Q5QJE6 1-756)
# chain: MVVTRSARAKASIQAASAESSGQKSFAANGIQAHPESSTGSDARTTAESQTTGKQSLIPRTPKARKRKSRTTGSLPKGTEPSTDGETSEAESNYSVSEHHDTILRVTRRRQILIACSPVSSVRKKPKVTPTKESYTEEIVSEAESHVSGISRIVLPTEKTTGARRSKAKSLTDPSQESHTEAISDAETSSSDISFSGIATRRTRSMQRKLKAQTEKKDSKIVPGNEKQIVGTPVNSEDSDTRQTSHLQARSLSEINKPNFYNNDFDDDFSHRSSENILTVHEQANVESLKETKQNCKDLDEDANGITDEGKEINEKSSQLKNLSELQDTSLQQLVSQRHSTPQNKNAVSVHSNLNSEAVMKSLTQTFATVEVGRWNNNKKSPIKASDLTKFGDCGGSDDEEESTVISVSEDMNSEGNVDFECDTKLYTSAPNTSQGKDNSVLLVLSSDESQQSENSENEEDTLCFVENSGQRESLSGDTGSLSCDNALFVIDTTPGMSADKNFYLEEEDKASEVAIEEEKEEEEDEKSEEDSSDHDENEDEFSDEEDFLNSTKAKLLKLTSSSIDPGLSIKQLGGLYINFNADKLQSNKRTLTQIKEKKKNELLQKAVITPDFEKNHCVPPYSESKYQLQKKRRKERQKTAGDGWFGMKAPEMTNELKNDLKALKMRASMDPKRFYKKNDRDGFPKYFQIGTIVDNPADFYHSRIPKKQRKRTIVEELLADSEFRRYNRRKYSEIMAEKAANAAGKKFRKKKKFRN
# B7: VPS4B (protein, UniProt O75351 1-444)
# chain: MSSTSPNLQKAIDLASKAAQEDKAGNYEEALQLYQHAVQYFLHVVKYEAQGDKAKQSIRAKCTEYLDRAEKLKEYLKNKEKKAQKPVKEGQPSPADEKGNDSDGEGESDDPEKKKLQNQLQGAIVIERPNVKWSDVAGLEGAKEALKEAVILPIKFPHLFTGKRTPWRGILLFGPPGTGKSYLAKAVATEANNSTFFSISSSDLVSKWLGESEKLVKNLFQLARENKPSIIFIDEIDSLCGSRSENESEAARRIKTEFLVQMQGVGVDNDGILVLGATNIPWVLDSAIRRRFEKRIYIPLPEPHARAAMFKLHLGTTQNSLTEADFRELGRKTDGYSGADISIIVRDALMQPVRKVQSATHFKKVRGPSRADPNHLVDDLLTPCSPGDPGAIEMTWMDVPGDKLLEPVVSMSDMLRSLSNTKPTVNEHDLLKLKKFTEDFGQEG
# Target: BioID-BAG3 (UniProt O95817)
# Test: proximity labelling; BioID in human AC16 cardiomyocyte cells: transfected with plasmid expressing BioID-BAG3 for 48 h, biotin for 16 h; LC-MS/MS; BAG3_Biotin vs. BioID vector only, adjusted p < 0.05; effect sizes corrected for biotin alone and for BAG3 over-expression; three replicates
row,Binder,binding
1,B1,binds
2,B2,binds
3,B3,binds
4,B4,binds
5,B5,binds
6,B6,binds
7,B7,binds

# From paper PMC11605229
